Measured values: PMC10564737, “Structure-based design of a phosphotyrosine-masked covalent ligand targeting the E3 ligase SOCS2” (Nature Communications, 2023)
Several values for one entry are separate records, joined by “and”; a condition that tells them apart may be missing. Identical values can stand only once. This continues a long series; more values of the same kind are listed elsewhere.

Sequences of proteins named here, by UniProt entry; tags and fusion partners are left off. Residues count along the entry.
UniProt O14508, 32-198: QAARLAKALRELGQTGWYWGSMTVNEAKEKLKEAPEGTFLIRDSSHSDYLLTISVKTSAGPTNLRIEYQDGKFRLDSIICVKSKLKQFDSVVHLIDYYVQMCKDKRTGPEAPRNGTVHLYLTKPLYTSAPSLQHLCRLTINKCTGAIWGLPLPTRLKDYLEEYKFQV

Molecular target: T1, SBC2 (Homo sapiens, UniProt O14508)
T1 construct: SOCS2 (amino acids 32–198); His6 (N, cleaved yes); made in house; host or cells: E. coli BL21(DE3)
Assay: Covalent fluorescence polarization (FP) probe displacement assay
Assay type: binding
Description: With the specific covalent modification of Cys111 established, we decided to fully characterize MN551 as a covalent SOCS2 inhibitor. […] (Fig. 2g, h, Supplementary Fig. 9). Due to the covalent nature of the competing inhibitor, a time-dependent reduction in the fraction of protein-bound probe is observed. […] This value illustrates reasonable specificity for a covalent inhibitor, with nonetheless scope for future optimization. In addition to characterizing the kinetic covalency parameters, we have also assessed the stability of the MN551 by monitoring its reactivity (half-life >70 min) with reduced glutathione (GSH) (Supplementary Fig. 10)[35].
To monitor the SBC2-ligand binding kinetics we designed a fluorescein-labeled small-molecule probe - compound 26. The fluorescence polarization (anisotropy) of a threefold serial dilution of 50 µM SBC2 in 10 nM of the probe in 100 mM HEPES pH 7.5, 50 mM NaCl, 0.5 mM TCEP, 2% DMSO was measured to determine the KL (Supplementary Fig. 9A) (BMG Labtech PHERAstar – firmware v1.33). Protein titration and the curves were fitted using GraphPad Prism 9, using one-site fitting models to determine the probe binding constant, KL. Samples were run in triplicate in 384 well plates, using a total volume per well of 16 μL. The bound fraction of the probe is measure using the equation:1 Fb=Af−A/Af−Ab Where,
A time-dependent reduction in probe anisotropy were measured for a 2-fold serial dilution of […] compound MN551 in 10 nM probe +300 μM SBC2. To determine the initial reversible binding affinity, the initial bound fraction of the probe at time = 0, Fbo (the y-intercept in Fb v/s Time plot, Supplementary Fig. 9B) was plotted against MN551 concentration, and the obtained IC50 is then converted to Ki (Supplementary Fig. 9C)[17]. The slope from Fb versus time graph when divided by Fbo gives rate of covalency, kobs. A plot of kobs v/s MN551 concentration using Michaelis–Menten model of GraphPad Prism 9, provides the parameters kinact (maximum potential rate of inactivation) and KI (concentration of MN551 at which kobs = kinact/2) (Supplementary Fig. 9D, E).
The observed first-order rate constant, kobs is related to KI and kinact by the equation:2 kobs=kinactI/KI+I
At [I]«[KI] the above equation is converted to3 […]
The slope from the plot of kobs against concentration of MN551 gives us the covalent efficiency parameter kinact/KI (Supp Fig. 9F)[30],[33].

[1] = MN551 25000 nM; Cycle 10 (45 min)
[2] = MN551 25000 nM; Cycle 11 (50 min)
[3] = MN551 25000 nM; Cycle 13 (60 min); n=1
[4] = MN551 25000 nM; Cycle 14 (65 min); n=1
[5] = MN551 25000 nM; Cycle 15 (70 min); n=1
[6] = MN551 25000 nM; Cycle 16 (75 min); n=1
[7] = MN551 25000 nM; Cycle 17 (80 min); n=1
[8] = MN551 50000 nM; Cycle 7 (30 min)
[9] = MN551 50000 nM; Cycle 8 (35 min)
[10] = MN551 50000 nM; Cycle 9 (40 min)
[11] = MN551 50000 nM; Cycle 10 (45 min)
[12] = MN551 50000 nM; Cycle 11 (50 min)
[13] = MN551 50000 nM; Cycle 13 (60 min); n=1
[14] = MN551 50000 nM; Cycle 14 (65 min); n=1
[15] = MN551 50000 nM; Cycle 15 (70 min); n=1
[16] = MN551 50000 nM; Cycle 16 (75 min); n=1
[17] = MN551 50000 nM; Cycle 17 (80 min); n=1
[18] = MN551 100000 nM; Cycle 8 (35 min)
[19] = MN551 100000 nM; Cycle 9 (40 min)
[20] = MN551 100000 nM; Cycle 10 (45 min)
[21] = MN551 100000 nM; Cycle 11 (50 min)
[22] = MN551 100000 nM; Cycle 13 (60 min); n=1
[23] = MN551 100000 nM; Cycle 14 (65 min); n=1
[24] = MN551 100000 nM; Cycle 15 (70 min); n=1
[25] = MN551 100000 nM; Cycle 16 (75 min); n=1
[26] = MN551 100000 nM; Cycle 17 (80 min); n=1

For `O=C(CCl)Nc1cccc(CNC(=O)[C@H](Cc2ccc(OP(=O)(O)O)cc2)NC(=O)Cc2ccc(F)cc2)c1` [MN551], the “Anisotropy based on Raw Data (485)” value [1] was 179.1 and 180.2 and 176.3, the “Anisotropy data 485,520,520” value [1] was 182.9 and 178.7 and 181.7 and the Anisotropy [2] was 177.2 and 179.6 and 175.9. The “Anisotropy based on Raw Data (485)” value [2] was 178.1 and 177.2 and 175.1, the “Anisotropy data 485,520,520” value [2] was 182.7 and 179.2 and 179.8 and the Anisotropy (MN551 25000 nM; Cycle 12 (55 min); n=1) was 177.3 and 177.9 and 177.6. The Anisotropy [3] was 176.7 and 177.8 and 178.2, the “Anisotropy based on Raw Data (485)” value [3] was 177.7 and 176.9 and 174 and the Anisotropy [4] was 176.4 and 175.6 and 177.3. For the same compound, the “Anisotropy based on Raw Data (485)” value [4] was 174 and 174.6 and 175.5, the Anisotropy [5] was 174.6 and 173 and 176.3 and the “Anisotropy based on Raw Data (485)” value [5] was 173.3 and 172.8 and 172.7. The Anisotropy [6] was 175 and 173.3 and 175.5, the “Anisotropy based on Raw Data (485)” value [6] was 173.6 and 172.7 and 171.2 and the Anisotropy [7] was 172.1 and 171.5 and 169.5. For the same compound, the “Anisotropy based on Raw Data (485)” value [7] was 171.4 and 170.6 and 170.9, the “Anisotropy data 485,520,520” value (MN551 25000 nM; Cycle 20 (95 min); n=1) was 169.7 and 168.6 and 169.2 and the Fb (MN551 50000 nM, Cycle 7 (30 min)) was 0.03791 and 0.07075 and 0.06918. For the same compound, the “Anisotropy based on Raw Data (485)” value (MN551 50000 nM, Cycle 12 (55 min)) was 177.6 and 172.1 and 175.1, the Anisotropy (MN551 50000 nM, Cycle 14 (65 min), n=1) was 173.4 and 172 and 172.2 and the Anisotropy (MN551 50000 nM, Cycle 15 (70 min), n=1) was 172.5 and 171.1 and 170.2. The Anisotropy (MN551 50000 nM, Cycle 16 (75 min), n=1) was 169.5 and 170.8 and 170.4, the Anisotropy (MN551 50000 nM, Cycle 18 (85 min), n=1) was 167.8 and 169.8 and 170.4 and the “Fb, fraction bound” value (MN551 50000 nM; Cycle 6 (25 min)) was 0.05203 and 0.06084 and 0.05571. The “Anisotropy data 485,520,520” value [8] was 181.3 and 180.8 and 182.9, the Fb [8] was 0.06938 and 0.08999 and 0.09318 and the Anisotropy [9] was 176.5 and 176.7 and 179.9. The “Anisotropy data 485,520,520” value [9] was 181.4 and 180.1 and 181.9, the Anisotropy [10] was 175.1 and 176.8 and 175 and the “Anisotropy based on Raw Data (485)” value [10] was 178.2 and 175.8 and 177.9. For the same compound, the “Anisotropy data 485,520,520” value [10] was 179.4 and 179.3 and 176.9, the Anisotropy [11] was 175.1 and 173.9 and 177.8 and the “Anisotropy based on Raw Data (485)” value [11] was 177.1 and 175.3 and 177.7. The “Anisotropy data 485,520,520” value [11] was 177.6 and 176.4 and 178.8, the Anisotropy [12] was 173.8 and 175.5 and 177 and the “Anisotropy based on Raw Data (485)” value [12] was 176.8 and 174.1 and 174.6. For the same compound, the “Anisotropy data 485,520,520” value [12] was 177.8 and 172.8 and 175.8, the Anisotropy (MN551 50000 nM; Cycle 12 (55 min); n=1) was 174 and 176.4 and 177 and the Anisotropy (MN551 50000 nM; Cycle 13 (60 min)) was 173.3 and 170.9 and 173. The Anisotropy [13] was 174.5 and 172.6 and 174.8, the “Anisotropy based on Raw Data (485)” value [13] was 175.6 and 171.5 and 173.7 and the Anisotropy [14] was 175.6 and 173.5 and 174.3. For the same compound, the “Anisotropy based on Raw Data (485)” value [14] was 173 and 172.1 and 171.1, the Anisotropy [15] was 175.4 and 171.4 and 175.7 and the “Anisotropy based on Raw Data (485)” value [15] was 173.8 and 170.7 and 170.9. The Anisotropy [16] was 172.4 and 172.3 and 175, the “Anisotropy based on Raw Data (485)” value [16] was 173.8 and 169.4 and 170.1 and the Anisotropy [17] was 172.3 and 170.4 and 170.3. For the same compound, the “Anisotropy based on Raw Data (485)” value [17] was 173.1 and 170 and 171.2, the “Anisotropy data 485,520,520” value (MN551 50000 nM; Cycle 20 (95 min); n=1) was 167.1 and 168.5 and 168.8 and the “Anisotropy based on Raw Data (485)” value (MN551 100000 nM, Cycle 12 (55 min)) was 176.2 and 174.8 and 177.2. The Anisotropy (MN551 100000 nM, Cycle 14 (65 min), n=1) was 175.7 and 173.6 and 173.5, the Anisotropy (MN551 100000 nM, Cycle 15 (70 min), n=1) was 174.3 and 172.1 and 173.7 and the Anisotropy (MN551 100000 nM, Cycle 16 (75 min), n=1) was 173.6 and 171.3 and 171.5. The Anisotropy (MN551 100000 nM, Cycle 18 (85 min), n=1) was 170 and 172.3 and 169, the “Fb, fraction bound” value (MN551 100000 nM; Cycle 4 (15 min)) was 0.0295 and 0.05292 and 0.03291 and the “Anisotropy data 485,520,520” value (MN551 100000 nM; Cycle 7 (30 min)) was 177.5 and 179.4 and 179.5. For the same compound, the Anisotropy [18] was 178.3 and 177.4 and 176.7, the “Anisotropy data 485,520,520” value [18] was 179.5 and 176.8 and 180.3 and the Anisotropy [19] was 176.5 and 176.6 and 177.6. For the same compound, the “Anisotropy based on Raw Data (485)” value [19] was 177.8 and 174.7 and 177.2, the “Anisotropy data 485,520,520” value [19] was 176.8 and 177.8 and 177.3 and the Anisotropy [20] was 177.9 and 175.4 and 175.6. The “Anisotropy based on Raw Data (485)” value [20] was 177.5 and 174.6 and 176.3, the “Anisotropy data 485,520,520” value [20] was 177.8 and 176.8 and the Anisotropy [21] was 175.3 and 174.1 and 176.7. The “Anisotropy based on Raw Data (485)” value [21] was 175.9 and 174.6 and 177.5, the “Anisotropy data 485,520,520” value [21] was 175.2 and 178.3 and 179.1 and the Anisotropy (MN551 100000 nM; Cycle 12 (55 min); n=1) was 175.2 and 177.8 and 176.4. For the same compound, the Anisotropy (MN551 100000 nM; Cycle 13 (60 min)) was 176.1 and 173.8 and 174.4, the Anisotropy [22] was 175.9 and 175 and 176.8 and the “Anisotropy based on Raw Data (485)” value [22] was 175.1 and 171.7 and 174.9. For the same compound, the Anisotropy [23] was 176.7 and 176.9 and 175.2, the “Anisotropy based on Raw Data (485)” value [23] was 174.9 and 172.2 and 172.6 and the Anisotropy [24] was 172.5 and 174.8 and 174.1. For the same compound, the “Anisotropy based on Raw Data (485)” value [24] was 173.6 and 171.9 and 173.7, the Anisotropy [25] was 173.2 and 173.6 and 174.8 and the “Anisotropy based on Raw Data (485)” value [25] was 174.9 and 172.9 and 173.1. The Anisotropy [26] was 173 and 167.6, the “Anisotropy based on Raw Data (485)” value [26] was 173.3 and 171 and 173.1 and the “Anisotropy data 485,520,520” value (MN551 100000 nM; Cycle 20 (95 min); n=1) was 172.6 and 168.6 and 170.5.
